Laboratory results published in the supplement of paper PMC4604168 (melanoma cell lines).
This is one part of the list. Single values are uncertain, as repeats are few or missing.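 Cells were imaged in 1,536-well plates, and nuclei stained with an antibody against cleaved PARP were counted against all DNA-stained nuclei to give the apoptosis fraction. Screening doses were chosen to leave most cells alive, and resting and induced cleaved-PARP levels differ strongly between cell lines.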

Assays:
Experiment in all cases: cleaved PARP positive nuclei fraction relative to DMSO control; melanoma cells; higher = more apoptosis
Conditions in all cases: library dose: low library concentration; 72 h
COLO792 = tested on: COLO792
COLO800 = tested on: COLO800
COLO829 = tested on: COLO829
G361 = tested on: G361
IPC-298 = tested on: IPC-298
IST-MEL1 = tested on: IST-MEL1
LB2518-MEL = tested on: LB2518-MEL
LOXIMVI = tested on: LOXIMVI

SMILES	cleaved PARP positive nuclei fraction (COLO792) [%]	cleaved PARP positive nuclei fraction (COLO800) [%]	cleaved PARP positive nuclei fraction (COLO829) [%]	cleaved PARP positive nuclei fraction (G361) [%]	cleaved PARP positive nuclei fraction (IPC-298) [%]	cleaved PARP positive nuclei fraction (IST-MEL1) [%]	cleaved PARP positive nuclei fraction (LB2518-MEL) [%]	cleaved PARP positive nuclei fraction (LOXIMVI) [%]
N.N.[Cl][Pt][Cl] [cisplatin] + Cc1cc([N+](=O)[O-])ccc1NS(=O)(=O)c1cc(Cl)ccc1Cl [FH535] (first compound 1.6 µM, partner dose 1 µM)	309	31.2	55.7	42.2	137	99.4	84.1	116
Cn1cc(C2=C(c3cn(C4CCN(Cc5ccccn5)CC4)c4ccccc34)C(=O)NC2=O)c2ccccc21 [Enzastaurin] + CC(C)CCN1c2nc(Nc3cc(F)c(O)c(F)c3)ncc2N(C)C(=O)C1C [BID1870] (first compound 0.8 µM, partner dose 0.2 µM)	61.4	210	28.1	99.3	71.4	129	86.3	84.2
C[C@]12O[C@H](C[C@]1(O)CO)n1c3ccccc3c3c4c(c5c6ccccc6n2c5c31)CNC4=O [Lestaurtinib] + Oc1nc(-c2ccc(C(F)(F)F)cc2)nc2c1CSCC2 [XAV939] (first compound 0.004 µM, partner dose 2 µM)	140	26.6	79.1	150	46.2	80.9	74.6	243
C[C@@H](N)c1ccc(C(=O)Nc2ccnc3[nH]ccc23)cc1 + Cc1cc(SCc2sc(-c3ccc(C(F)(F)F)c(F)c3)nc2C)ccc1OCC(=O)O [GW0742] (first compound 0.4 µM, partner dose 2 µM)	118	38.4	200	139	59.7	151	30.4	1130
CS(=O)(=O)c1ccc(C(=O)Nc2ccc(Cl)c(-c3ccccn3)c2)c(Cl)c1 [vismodegib] + Cc1cc(SCc2sc(-c3ccc(C(F)(F)F)c(F)c3)nc2C)ccc1OCC(=O)O [GW0742] (first compound 1 µM, partner dose 2 µM)	95	106	163	126	176	183	33.6	90.1
Cn1cc(C2=C(c3cn(C4CCN(Cc5ccccn5)CC4)c4ccccc34)C(=O)NC2=O)c2ccccc21 [Enzastaurin] + O=C(Oc1ccc([N+](=O)[O-])cc1)N1CCC(C(O)(c2ccc3c(c2)OCO3)c2ccc3c(c2)OCO3)CC1 [JZL184] (first compound 0.8 µM, partner dose 1 µM)	154	66.2	84.4	157	91.2	66.2	43	39.6
N.N.[Cl][Pt][Cl] [cisplatin] + COc1ccc(-c2ccc3c(N4CCOCC4)nc(N4C[C@@H](C)O[C@@H](C)C4)nc3n2)cc1CO [KU0063794] (first compound 1.6 µM, partner dose 0.02 µM)	204	68.8	120	153	101	212	63.1	134
CC(C)C[C@H](NC(=O)[C@H](Cc1ccccc1)NC(=O)c1cnccn1)B(O)O [Bortezomib] + O=C(Oc1ccc([N+](=O)[O-])cc1)N1CCC(C(O)(c2ccc3c(c2)OCO3)c2ccc3c(c2)OCO3)CC1 [JZL184] (first compound 0.001 µM, partner dose 1 µM)	73	35.4	186	4300	339	125	557	214
Cn1cc(C2=C(c3cn(C4CCN(Cc5ccccn5)CC4)c4ccccc34)C(=O)NC2=O)c2ccccc21 [Enzastaurin] + CCN(CC)CCCCNc1ncc2cc(-c3cc(OC)cc(OC)c3)c(NC(=O)NC(C)(C)C)nc2n1 [PD173074] (first compound 0.8 µM, partner dose 0.1 µM)	83.9	92.1	92.7	111	83.1	83	85.7	69.5
C[C@]12O[C@H](C[C@]1(O)CO)n1c3ccccc3c3c4c(c5c6ccccc6n2c5c31)CNC4=O [Lestaurtinib] + COc1cc(N2CCC(N3CCN(C)CC3)CC2)ccc1Nc1ncc(Cl)c(Nc2ccccc2S(=O)(=O)C(C)C)n1 [NVP-TAE684] (first compound 0.004 µM, partner dose 0.08 µM)	62.7	175	121	201	221	61.7	65	67.5
COc1ccc(C2=N[C@@H](c3ccc(Cl)cc3)[C@@H](c3ccc(Cl)cc3)N2C(=O)N2CCNC(=O)C2)c(OC(C)C)c1 [Nutlin-3] + Cc1cc(SCc2sc(-c3ccc(C(F)(F)F)c(F)c3)nc2C)ccc1OCC(=O)O [GW0742] (first compound 0.1 µM, partner dose 2 µM)	88.9	117	83.5	140	88.5	186	67	202
Cn1cc(C2=C(c3cn(C4CCN(Cc5ccccn5)CC4)c4ccccc34)C(=O)NC2=O)c2ccccc21 [Enzastaurin] + O=C1NC(=O)/C(=C/c2ccc(-c3ccc(F)cc3O)o2)S1 [AS252424] (first compound 0.8 µM, partner dose 1 µM)	62.4	57.3	208	17.3	45	21.3	35.7	115
Cn1cc(C2=C(c3cn(C4CCN(Cc5ccccn5)CC4)c4ccccc34)C(=O)NC2=O)c2ccccc21 [Enzastaurin] + C/C(O)=C(\C#N)C(=O)Nc1cc(Br)ccc1Br [LFM-A13] (first compound 0.8 µM, partner dose 2 µM)	166	32.6	116	44.3	64.1	164	75.6	71
C[C@]12O[C@H](C[C@]1(O)CO)n1c3ccccc3c3c4c(c5c6ccccc6n2c5c31)CNC4=O [Lestaurtinib] + C/C(O)=C(\C#N)C(=O)Nc1cc(Br)ccc1Br [LFM-A13] (first compound 0.004 µM, partner dose 2 µM)	68.8	87.8	144	50.2	144	137	74.2	21.9
C[C@]1(O)C[C@@H](c2nc(-c3ccc4ccc(-c5ccccc5)nc4c3)c3c(N)nccn32)C1 + O=C(Oc1ccc([N+](=O)[O-])cc1)N1CCC(C(O)(c2ccc3c(c2)OCO3)c2ccc3c(c2)OCO3)CC1 [JZL184] (first compound 0.4 µM, partner dose 1 µM)	147	42.1	131	114	149	107	35	116
Cn1cc(C2=C(c3cn(C4CCN(Cc5ccccn5)CC4)c4ccccc34)C(=O)NC2=O)c2ccccc21 [Enzastaurin] + Oc1nc(-c2ccc(C(F)(F)F)cc2)nc2c1CSCC2 [XAV939] (first compound 0.8 µM, partner dose 2 µM)	72.5	104	83.6	124	80.8	68.1	68.1	48.1
CCCS(=O)(=O)Nc1ccc(F)c(C(=O)c2c[nH]c3ncc(Cl)cc23)c1F + Cc1cc(SCc2sc(-c3ccc(C(F)(F)F)c(F)c3)nc2C)ccc1OCC(=O)O [GW0742] (first compound 0.08 µM, partner dose 2 µM)	49.9	265	93.4	102	102	151	119	70.9
O=C(Nc1cc(C(F)(F)F)cc(C(F)(F)F)c1)c1cc(Cl)ccc1O + C/C(O)=C(\C#N)C(=O)Nc1cc(Br)ccc1Br [LFM-A13] (first compound 0.016 µM, partner dose 2 µM)	55.5	87.5	103	92.7	91.3	103	63.9	69
OCc1c[nH]c2ccccc12 [Indole-3-carbinol] + C/C(O)=C(\C#N)C(=O)Nc1cc(Br)ccc1Br [LFM-A13] (first compound 0.8 µM, partner dose 2 µM)	103	170	76.4	189	96.7	86.9	73.3	3190
Cn1cc(C2=C(c3cn(C4CCN(Cc5ccccn5)CC4)c4ccccc34)C(=O)NC2=O)c2ccccc21 [Enzastaurin] + CCc1ccc(CCOc2ccc(CC3SC(=O)NC3=O)cc2)nc1 [pioglitazone] (first compound 0.8 µM, partner dose 2 µM)	101	174	147	104	131	67.6	258	27.5
Cn1cc(C2=C(c3cn(C4CCN(Cc5ccccn5)CC4)c4ccccc34)C(=O)NC2=O)c2ccccc21 [Enzastaurin] + N#Cc1c(O)c2c(-c3ccc(-c4ccccc4O)cc3)csc2[nH]c1=O [A769662] (first compound 0.8 µM, partner dose 2 µM)	58	46.8	40.4	85.1	126	66.1	223	219
Cn1cnc2c(F)c(Nc3ccc(Br)cc3Cl)c(C(=O)NOCCO)cc21 [selumetinib] + Cc1cc(SCc2sc(-c3ccc(C(F)(F)F)c(F)c3)nc2C)ccc1OCC(=O)O [GW0742] (first compound 0.015 µM, partner dose 2 µM)	91.4	74.4	86.2	161	124	162	357	59.9
Cn1sc(=O)n(Cc2ccccc2)c1=O + O=C(Oc1ccc([N+](=O)[O-])cc1)N1CCC(C(O)(c2ccc3c(c2)OCO3)c2ccc3c(c2)OCO3)CC1 [JZL184] (first compound 0.4 µM, partner dose 1 µM)	117	50.3	51.6	145	47.9	120	60.6	112
CNC(=O)c1cc(Oc2ccc(NC(=O)Nc3ccc(Cl)c(C(F)(F)F)c3)cc2)ccn1 [sorafenib] + O=C(Oc1ccc([N+](=O)[O-])cc1)N1CCC(C(O)(c2ccc3c(c2)OCO3)c2ccc3c(c2)OCO3)CC1 [JZL184] (first compound 0.4 µM, partner dose 1 µM)	165	59.8	50.9	89.3	31.4	162	64.4	126

Exported in CSV form: entries from further up
SMILES,cleaved PARP positive nuclei fraction (COLO792) [%],cleaved PARP positive nuclei fraction (COLO800) [%],cleaved PARP positive nuclei fraction (COLO829) [%],cleaved PARP positive nuclei fraction (G361) [%],cleaved PARP positive nuclei fraction (IPC-298) [%],cleaved PARP positive nuclei fraction (IST-MEL1) [%],cleaved PARP positive nuclei fraction (LB2518-MEL) [%],cleaved PARP positive nuclei fraction (LOXIMVI) [%]
"OCc1c[nH]c2ccccc12 [Indole-3-carbinol] + C/C(O)=C(\C#N)C(=O)Nc1cc(Br)ccc1Br [LFM-A13] (first compound 0.8 µM, partner dose 2 µM)",103,170,76.4,189,96.7,86.9,73.3,3190
"Cn1cc(C2=C(c3cn(C4CCN(Cc5ccccn5)CC4)c4ccccc34)C(=O)NC2=O)c2ccccc21 [Enzastaurin] + CCc1ccc(CCOc2ccc(CC3SC(=O)NC3=O)cc2)nc1 [pioglitazone] (first compound 0.8 µM, partner dose 2 µM)",101,174,147,104,131,67.6,258,27.5
